According to doi:10.1101/2025.01.15.633177 (bioRxiv, 2025):
Results are given in words; binding and its absence hold for the method and conditions named. Some results given as binding are weak or reduced against the parent protein; the word gives no strength.

Protein sequences, listed by entry. Tags and fused reporters are not part of them. Residues count along the entry.
UniProt Q9NYV4, 714-1063: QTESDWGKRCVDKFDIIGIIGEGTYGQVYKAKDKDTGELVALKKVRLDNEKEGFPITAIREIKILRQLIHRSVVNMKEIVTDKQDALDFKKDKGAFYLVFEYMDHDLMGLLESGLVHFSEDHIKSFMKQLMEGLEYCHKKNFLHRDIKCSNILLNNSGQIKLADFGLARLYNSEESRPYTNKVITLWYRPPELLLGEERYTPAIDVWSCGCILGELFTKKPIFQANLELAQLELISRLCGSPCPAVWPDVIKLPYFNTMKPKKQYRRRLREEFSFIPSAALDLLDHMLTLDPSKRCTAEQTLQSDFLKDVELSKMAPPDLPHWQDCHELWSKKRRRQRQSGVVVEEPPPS

Molecular target: CDK12 kinase domain (amino acids 714-1063) (human) (UniProt Q9NYV4)
Assay: co-expression and co-purification

binding: binds
B1: cyclin K cyclin box domains (amino acids 1-267) (domain or fragment, UniProt O75909 1-267)
chain: MKENKENSSPSVTSANLDHTKPCWYWDKKDLAHTPSQLEGLDPATEARYRREGARFIFDVGTRLGLHYDTLATGIIYFHRFYMFHSFKQFPRYVTGACCLFLAGKVEETPKKCKDIIKTARSLLNDVQFGQFGDDPKEEVMVLERILLQTIKFDLQVEHPYQFLLKYAKQLKGDKNKIQKLVQMAWTFVNDSLCTTLSLQWEPEIIAVAVMYLAGRLCKFEIQEWTSKPMYRRWWEQFVQDVPVDVLEDICHQILDLYSQGKQQMPH
